# Assay results reported in patent US11440909B2, “10H-phenothiazine ferroptosis inhibitor as well as the preparative method and the use thereof” (CHENGDU HENGHAO INVESTMENT CO. LIMITED, priority 2018, dated 2022).
# Test system: rat middle cerebral artery occlusion (MCAO) stroke model
# Assay: Rat middle cerebral artery occlusion (MCAO) stroke model, different doses
# Assay type: in vivo
# Experimental: By rat middle cerebral artery occlusion (MCAO) stroke model (also called cerebral ischemia model), the therapeutic effect of the compound of the present invention on ischemic stroke in SD rats at different doses was studied. Male SD rats were selected and induced anesthesia by 2-3.0% isoflurane. The middle cerebral artery was blocked by the thread plug method, resulting in rat ischemia model; the ischemic rats were placed at room temperature and kept their body temperature being 37° C. 60 minutes after ischemia onset, the rats were scored by Bederson neurobehavioral scale to determine whether the model was successfully made. 90 min after ischemia onset, the thread plug was pulled out for reperfusion. […] After 24 h of reperfusion, the animals were scored by NSS scale to evaluate neurological deficit. And then the animals were dissected, brains were collected and subjected to TTC stain. […] The percentage of the weight of the infarct tissue based on the weight of the whole brain was regarded as the infarct range (%), and the inhibition rate (%) of each drug treatment group was calculated based on the infarct range.
compound,measurement,setting,value
"CCCCC1OC(=O)c2ccccc21 (centres unmarked) [Positive drug, butylphthalide, reference compound]",Whole brain weight,"positive drug butylphthalide 10 mg/kg, tail vein injection, 24 h of reperfusion",1.446 ± 0.145 g
same,Bederson score,"positive drug group butylphthalide 10 mg/kg, scored 60 minutes after ischemia onset (before administration)",2.929 ± 0.267
